In the assay the target is T1, Tagged SHMT2 (mouse) (UniProt Q9CZN7).
T1 sequence: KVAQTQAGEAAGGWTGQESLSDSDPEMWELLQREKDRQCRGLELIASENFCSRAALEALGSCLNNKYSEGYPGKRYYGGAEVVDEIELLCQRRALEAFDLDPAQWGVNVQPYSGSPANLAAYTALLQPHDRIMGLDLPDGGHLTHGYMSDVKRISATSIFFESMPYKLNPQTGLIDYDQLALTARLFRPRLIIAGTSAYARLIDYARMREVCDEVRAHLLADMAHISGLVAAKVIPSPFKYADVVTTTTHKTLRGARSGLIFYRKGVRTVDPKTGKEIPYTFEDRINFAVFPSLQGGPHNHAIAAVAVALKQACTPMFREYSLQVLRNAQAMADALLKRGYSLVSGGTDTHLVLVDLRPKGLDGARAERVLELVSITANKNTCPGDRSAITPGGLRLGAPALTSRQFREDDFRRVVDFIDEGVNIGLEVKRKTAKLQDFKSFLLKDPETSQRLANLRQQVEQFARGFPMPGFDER
As to the kind of experiment: co-IP; lysis in NP-40 buffer (1% NP40, 0.5% deoxycholate, 50 mM Tris pH 7.5, 150 mM NaCl); anti-FLAG M2 affinity agarose beads; western blot with antibodies to SHMT2 and ACOT2. For orientation: Immunoblotting shows a protein as a band on a membrane.

For 1 substance, binding results are on record in PMC7480864.

No constants are given. Whether binding was seen depends on the method and setting. Binding seen in cells or lysates may run through a third protein. Binding can be weak; no strength is given. Tags and fused reporters may be left off the sequences shown.

As for “Acyl-coenzyme A thioesterase 2, mitochondrial (human (endogenous in HeLa))”, the binding result is listed as “binds”.
